Results from article PMC8368198.
These are yes or no findings as the source states them, for the method shown. In cells and extracts the contact can be indirect. Binding can be weak; no strength is given. Tags and fused reporters may be left off the sequences shown.

Target: T1, 3x FLAG-tagged wild-type LONP1 (human ATP-dependent mitochondrial Lon protease) (human) (UniProt P36776)
T1 sequence: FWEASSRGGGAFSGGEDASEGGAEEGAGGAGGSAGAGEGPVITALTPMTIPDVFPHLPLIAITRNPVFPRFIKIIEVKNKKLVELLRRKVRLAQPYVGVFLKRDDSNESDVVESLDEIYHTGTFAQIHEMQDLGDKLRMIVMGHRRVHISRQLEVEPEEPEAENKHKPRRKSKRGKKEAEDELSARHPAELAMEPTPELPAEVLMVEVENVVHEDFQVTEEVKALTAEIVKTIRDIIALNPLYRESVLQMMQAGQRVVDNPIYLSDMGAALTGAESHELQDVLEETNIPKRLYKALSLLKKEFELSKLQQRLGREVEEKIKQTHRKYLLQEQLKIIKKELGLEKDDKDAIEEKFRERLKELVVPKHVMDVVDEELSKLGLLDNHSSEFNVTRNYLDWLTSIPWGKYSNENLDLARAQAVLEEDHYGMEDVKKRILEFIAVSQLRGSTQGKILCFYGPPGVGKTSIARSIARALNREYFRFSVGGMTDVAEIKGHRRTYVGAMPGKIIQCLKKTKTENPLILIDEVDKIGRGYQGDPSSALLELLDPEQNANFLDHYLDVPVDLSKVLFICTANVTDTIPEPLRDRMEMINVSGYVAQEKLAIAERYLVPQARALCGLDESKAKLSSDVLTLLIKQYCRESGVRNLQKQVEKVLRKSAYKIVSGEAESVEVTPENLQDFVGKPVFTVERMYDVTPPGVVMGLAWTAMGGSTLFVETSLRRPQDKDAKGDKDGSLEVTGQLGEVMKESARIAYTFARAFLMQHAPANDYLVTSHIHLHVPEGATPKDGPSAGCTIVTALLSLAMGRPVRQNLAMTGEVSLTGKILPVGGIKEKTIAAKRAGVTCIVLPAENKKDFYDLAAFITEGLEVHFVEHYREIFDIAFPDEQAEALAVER
Assay: co-IP; HEK293 cells expressing 3xFLAG-LONP1 (1 ng/mL doxycycline, 3 d) treated with the reversible crosslinker DSP (2 mM, on ice, 30 min), extracted in RIPA buffer; anti-FLAG-tag mAb magnetic beads, 90 min at 4 °C, eluted with FLAG peptides; DSP cleaved with DTT; immunoblot

binding: binds
Substance: translocase of the inner mitochondrial membrane 44 (TIMM44) (human (endogenous in HEK293))
